{"source": "the supplement of paper PMC10077471", "note": "Whole data set: some 1,900 compounds, median “excess over highest single agent (ExcessHSA) synergy score, 6x6 matrix” near -83, cut for the lowest 2% near -370. Some of the results follow."}
{"test_system": "NCI-H446", "assay": "excess over highest single agent (ExcessHSA) synergy score, 6x6 matrix; higher = less synergy (more negative = stronger synergy)", "conditions": "72 h; CellTiter-Glo viability"}
{"smiles": "C/C=C(\\C)C(=O)N[C@@H](c1ccccc1)[C@@H](O)C(=O)O[C@H]1C[C@@]2(O)[C@@H](OC(=O)c3ccccc3)[C@@H]3[C@]4(OC(C)=O)CO[C@@H]4C[C@H](O)[C@@]3(C)C(=O)[C@H](OC(C)=O)C(=C1C)C2(C)C", "note": "+ Cc1sc2c(c1C)C(c1ccc(Cl)cc1)=N[C@@H](CC(=O)OC(C)(C)C)c1nnc(C)n1-2 [NCGC00250412-19]", "excess over highest single agent": -68}
{"smiles": "CC[C@@]1(O)C(=O)OCc2c1cc1n(c2=O)Cc2cc3cc(O)ccc3nc2-1", "note": "+ Cc1sc2c(c1C)C(c1ccc(Cl)cc1)=N[C@@H](CC(=O)OC(C)(C)C)c1nnc(C)n1-2 [NCGC00250412-19]", "excess over highest single agent": -416}
{"smiles": "Cc1cccc(-c2[nH]c(C(C)(C)C)nc2-c2ccc3nccnc3c2)n1", "note": "+ Cc1sc2c(c1C)C(c1ccc(Cl)cc1)=N[C@@H](CC(=O)OC(C)(C)C)c1nnc(C)n1-2 [NCGC00250412-19]", "excess over highest single agent": 87.5}
{"smiles": "Nc1cccc(S(=O)(=O)N2CCCN(S(=O)(=O)c3ccc4c(c3)OCCO4)CC2)c1", "note": "+ Cc1sc2c(c1C)C(c1ccc(Cl)cc1)=N[C@@H](CC(=O)OC(C)(C)C)c1nnc(C)n1-2 [NCGC00250412-19]", "excess over highest single agent": -24.9}
{"smiles": "CC[C@H](C)n1cc(C)c2c(C(=O)NCc3c(C)cc(C)[nH]c3=O)cc(-c3ccc(N4CCNCC4)nc3)cc21", "note": "+ Cc1sc2c(c1C)C(c1ccc(Cl)cc1)=N[C@@H](CC(=O)OC(C)(C)C)c1nnc(C)n1-2 [NCGC00250412-19]", "excess over highest single agent": -78.6}
{"smiles": "CC1(CN2CCC(n3c(=O)[nH]c4ccccc43)CC2)OCc2ccccc2-n2cccc21", "note": "(centres undefined) + Cc1sc2c(c1C)C(c1ccc(Cl)cc1)=N[C@@H](CC(=O)OC(C)(C)C)c1nnc(C)n1-2 [NCGC00250412-19]", "excess over highest single agent": -142}
{"smiles": "NC(=O)c1noc([C@H](CCCC2CCCCC2)CC(=O)NO)n1", "note": "+ Cc1sc2c(c1C)C(c1ccc(Cl)cc1)=N[C@@H](CC(=O)OC(C)(C)C)c1nnc(C)n1-2 [NCGC00250412-19]", "excess over highest single agent": -77.7}
{"smiles": "Cc1cnc(Nc2ccc(N3CCN(C)CC3)cc2)nc1Nc1cccc(S(=O)(=O)NC(C)(C)C)c1", "note": "+ Cc1sc2c(c1C)C(c1ccc(Cl)cc1)=N[C@@H](CC(=O)OC(C)(C)C)c1nnc(C)n1-2 [NCGC00250412-19]", "excess over highest single agent": -168}
{"smiles": "O=C1NC(=O)/C(=C/c2ccc(-c3ccc(F)cc3O)o2)S1", "note": "+ Cc1sc2c(c1C)C(c1ccc(Cl)cc1)=N[C@@H](CC(=O)OC(C)(C)C)c1nnc(C)n1-2 [NCGC00250412-19]", "excess over highest single agent": 92.3}
{"smiles": "COc1cccc2nc(-c3cccs3)nc(NN3C(=O)C=C(C)C3=O)c12", "note": "+ Cc1sc2c(c1C)C(c1ccc(Cl)cc1)=N[C@@H](CC(=O)OC(C)(C)C)c1nnc(C)n1-2 [NCGC00250412-19]", "excess over highest single agent": -408}
{"smiles": "Cc1ccc(/C=N/NC(=O)c2ccccc2Oc2ccccc2)o1", "note": "+ Cc1sc2c(c1C)C(c1ccc(Cl)cc1)=N[C@@H](CC(=O)OC(C)(C)C)c1nnc(C)n1-2 [NCGC00250412-19]", "excess over highest single agent": 17.3}
{"smiles": "CNC(=O)c1nn(C)c2c1C(C)(C)Cc1cnc(Nc3ccc(N4CCN(C)CC4)cc3)nc1-2", "note": "+ Cc1sc2c(c1C)C(c1ccc(Cl)cc1)=N[C@@H](CC(=O)OC(C)(C)C)c1nnc(C)n1-2 [NCGC00250412-19]", "excess over highest single agent": -348}
{"smiles": "CC(C)(O)CC[C@@H](O)[C@](C)(O)[C@H]1CC[C@@]2(O)C3=CC(=O)[C@@H]4C[C@@H](O)[C@@H](O)C[C@]4(C)[C@H]3CC[C@]12C", "note": "+ Cc1sc2c(c1C)C(c1ccc(Cl)cc1)=N[C@@H](CC(=O)OC(C)(C)C)c1nnc(C)n1-2 [NCGC00250412-19]", "excess over highest single agent": -36.1}
{"smiles": "Cc1ccc(C(C)(O)c2nc3ccccc3s2)c(C)c1", "note": "(centres undefined) + Cc1sc2c(c1C)C(c1ccc(Cl)cc1)=N[C@@H](CC(=O)OC(C)(C)C)c1nnc(C)n1-2 [NCGC00250412-19]", "excess over highest single agent": -48.3}
{"smiles": "COc1cc2nc(N3CCN(C(=O)C4CCCO4)CC3)nc(N)c2cc1OC", "note": "(centres undefined) + Cc1sc2c(c1C)C(c1ccc(Cl)cc1)=N[C@@H](CC(=O)OC(C)(C)C)c1nnc(C)n1-2 [NCGC00250412-19]", "excess over highest single agent": 23.3}
{"smiles": "CN1CCN(c2cccc(Nc3nc4c(-c5ccc(S(C)(=O)=O)cc5)cccn4n3)c2)CC1", "note": "+ Cc1sc2c(c1C)C(c1ccc(Cl)cc1)=N[C@@H](CC(=O)OC(C)(C)C)c1nnc(C)n1-2 [NCGC00250412-19]", "excess over highest single agent": 53.5}
{"smiles": "Cc1ccc(C2=Nc3ccc(Cl)cc3OC2)cc1", "note": "+ Cc1sc2c(c1C)C(c1ccc(Cl)cc1)=N[C@@H](CC(=O)OC(C)(C)C)c1nnc(C)n1-2 [NCGC00250412-19]", "excess over highest single agent": -211}
{"smiles": "CC(=O)OCC(=O)[C@@]1(O)CC[C@H]2[C@@H]3CCC4=CC(=O)CC[C@]4(C)[C@H]3C(=O)C[C@@]21C", "note": "+ Cc1sc2c(c1C)C(c1ccc(Cl)cc1)=N[C@@H](CC(=O)OC(C)(C)C)c1nnc(C)n1-2 [NCGC00250412-19]", "excess over highest single agent": -62.4}
{"smiles": "CC/C=C\\CC1C(=O)CCC1CC(=O)OC", "note": "(centres undefined) + Cc1sc2c(c1C)C(c1ccc(Cl)cc1)=N[C@@H](CC(=O)OC(C)(C)C)c1nnc(C)n1-2 [NCGC00250412-19]", "excess over highest single agent": 223}
{"smiles": "CCCCC(=O)O[C@]1(C(=O)CO)[C@@H](C)C[C@H]2[C@@H]3CCC4=CC(=O)C=C[C@]4(C)[C@@]3(F)[C@@H](O)C[C@@]21C", "note": "+ Cc1sc2c(c1C)C(c1ccc(Cl)cc1)=N[C@@H](CC(=O)OC(C)(C)C)c1nnc(C)n1-2 [NCGC00250412-19]", "excess over highest single agent": -26.5}
{"smiles": "Nc1ccn(C[C@@H](CO)OCP(=O)(O)O)c(=O)n1", "note": "+ Cc1sc2c(c1C)C(c1ccc(Cl)cc1)=N[C@@H](CC(=O)OC(C)(C)C)c1nnc(C)n1-2 [NCGC00250412-19]", "excess over highest single agent": -231}
{"smiles": "FC(F)(F)c1ccc(/C=C/c2nc(COc3ccc(CCCCn4ccnn4)cc3)co2)cc1", "note": "+ Cc1sc2c(c1C)C(c1ccc(Cl)cc1)=N[C@@H](CC(=O)OC(C)(C)C)c1nnc(C)n1-2 [NCGC00250412-19]", "excess over highest single agent": -204}
{"smiles": "CCOP(=O)(OCC)C(C)NC(=O)N(CCCl)N=O", "note": "(centres undefined) + Cc1sc2c(c1C)C(c1ccc(Cl)cc1)=N[C@@H](CC(=O)OC(C)(C)C)c1nnc(C)n1-2 [NCGC00250412-19]", "excess over highest single agent": -71}
{"smiles": "CC(=O)OCC1=C(C(=O)O)N2C(=O)[C@@H](N)[C@H]2SC1", "note": "+ Cc1sc2c(c1C)C(c1ccc(Cl)cc1)=N[C@@H](CC(=O)OC(C)(C)C)c1nnc(C)n1-2 [NCGC00250412-19]", "excess over highest single agent": -96.7}
